# Assay results: PubChem BioAssay AID1347421 (Sanford-Burnham Center for Chemical Genomics, 2020)
# Protein sequences, listed by entry. Tags and fused reporters are not part of them. Lines headed by an entry give the natural chain unless they say otherwise; changes in a name come on top.
# UniProt O00391: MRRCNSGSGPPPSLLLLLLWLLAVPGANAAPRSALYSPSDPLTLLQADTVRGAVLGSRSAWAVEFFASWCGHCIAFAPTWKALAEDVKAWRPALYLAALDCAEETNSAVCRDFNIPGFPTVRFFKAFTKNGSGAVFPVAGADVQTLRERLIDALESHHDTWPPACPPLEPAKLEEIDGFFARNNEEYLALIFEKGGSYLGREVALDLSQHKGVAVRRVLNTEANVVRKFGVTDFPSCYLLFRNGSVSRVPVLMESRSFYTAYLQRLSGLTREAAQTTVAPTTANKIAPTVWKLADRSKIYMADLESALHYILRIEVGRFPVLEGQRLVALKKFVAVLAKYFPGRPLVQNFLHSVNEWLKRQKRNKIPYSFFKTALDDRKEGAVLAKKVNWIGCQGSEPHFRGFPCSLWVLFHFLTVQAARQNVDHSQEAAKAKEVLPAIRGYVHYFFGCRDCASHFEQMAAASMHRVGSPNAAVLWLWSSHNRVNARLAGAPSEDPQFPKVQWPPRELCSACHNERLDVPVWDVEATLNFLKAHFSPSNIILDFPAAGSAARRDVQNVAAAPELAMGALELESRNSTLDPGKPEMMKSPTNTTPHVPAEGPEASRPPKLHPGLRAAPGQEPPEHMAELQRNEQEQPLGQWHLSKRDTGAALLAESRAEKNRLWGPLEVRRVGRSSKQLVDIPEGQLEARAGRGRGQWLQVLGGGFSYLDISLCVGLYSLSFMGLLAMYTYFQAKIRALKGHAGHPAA
# Whole data set: some 1,500 compounds, median “activity” near 2, cut for the lowest 2% near -18. Some of the results follow. The source made the active and inactive calls.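 How the source made its calls: active means inhibition of at least 40% at 10 µM; inconclusive means no clear call, values can overlap the other calls; inactive means the rest.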
# Biological target: Sulfhydryl oxidase 1 (Homo sapiens) (UniProt O00391)
# Assay: QSOX1 enzyme inhibitors, confirmation, biochemical, ROS-Glo luminescence, single concentration (AID 1347421);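 further: 0% = DMSO wells with enzyme and 100% = wells lacking QSOX1 enzyme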
# Conditions: recombinant hQSOX1, RNase A substrate, ROS-Glo H2O2 luminescence; at 10 µM
row,Compound,activity
1,Fc1ccccc1-c1noc2c1CN(Cc1cccnc1)CC2,inactive: -1.3%
2,Cc1nc(CC(=O)N2CCCC(CCC(=O)N3CCN(c4ccccn4)CC3)C2)cs1 (stereo unspecified),inactive: -2.5%
3,Cc1ccc(CNc2nnnn2C)s1,1.9%
4,O=C(CC1Nc2ccccc2NC1=O)NC1CCCC1 (stereo unspecified),5.9%
5,O=C1Nc2ccccc2Oc2ccc(S(=O)(=O)N3CCOCC3)cc21,inactive: -1.3%
6,CN1CCC(NC2CC(=O)N(C3CCCCCC3)C2)CC1 (stereo unspecified),0.2%
7,CCN(Cc1cnn(C)c1)C(=O)c1cc(COc2ccc(F)cc2F)on1,7.7%
8,CC1CN(c2ccccc2)CCN1c1nc2nonc2nc1N1CCOCC1 (stereo unspecified),5.4%
9,CSc1ccccc1C(=O)N1CCOC(CCN(C)C)C1 (stereo unspecified),inactive: -1%
10,COc1cccc2c1OCC(CNC1CCCN(c3ncccn3)C1)=C2 (stereo unspecified),7.2%
11,Cc1nc2ccc(Cl)cn2c1CN1CCOC(Cc2ccccc2)C1 (stereo unspecified),7.9%
12,O=C(Nc1ccc(N2CCCC2=O)cc1)c1cncc(Br)c1,2.1%
13,C/C(=C\c1ccco1)CNCc1cccnc1N1CCOCC1,inactive: -3.5%
14,CCS(=O)(=O)c1ncc(CN2CCN(c3cnccn3)CC2)n1CCc1ccccc1,6.2%
15,Cc1occc1C(=O)Nc1ccc([N+](=O)[O-])cn1,17.1%
16,c1ccc(CCCc2nn3c(-c4cccnc4)nnc3s2)cc1,3%

# Part of the list above, with bars between the fields:
row | Compound | activity
6 | CN1CCC(NC2CC(=O)N(C3CCCCCC3)C2)CC1 (stereo unspecified) | 0.2%
7 | CCN(Cc1cnn(C)c1)C(=O)c1cc(COc2ccc(F)cc2F)on1 | 7.7%
8 | CC1CN(c2ccccc2)CCN1c1nc2nonc2nc1N1CCOCC1 (stereo unspecified) | 5.4%
9 | CSc1ccccc1C(=O)N1CCOC(CCN(C)C)C1 (stereo unspecified) | inactive: -1%
10 | COc1cccc2c1OCC(CNC1CCCN(c3ncccn3)C1)=C2 (stereo unspecified) | 7.2%
11 | Cc1nc2ccc(Cl)cn2c1CN1CCOC(Cc2ccccc2)C1 (stereo unspecified) | 7.9%
12 | O=C(Nc1ccc(N2CCCC2=O)cc1)c1cncc(Br)c1 | 2.1%
13 | C/C(=C\c1ccco1)CNCc1cccnc1N1CCOCC1 | inactive: -3.5%
14 | CCS(=O)(=O)c1ncc(CN2CCN(c3cnccn3)CC2)n1CCc1ccccc1 | 6.2%

# Going on with the list.

row,Compound,activity
1,COc1cc(Cl)c(CN2CC[C@@H](N3CCN(C)CC3)[C@H](O)C2)cc1OC,inactive: -4.5%
2,COc1ccc(CNCCN(C)C)cc1OCC(O)CN(C)C(C)C (stereo unspecified),5.8%
3,CS(=O)(=O)Nc1ccccc1-c1nc2ccccc2[nH]c1=O,inactive: -9.2%
4,COc1cccc(CN2CCN(Cc3ccc(Cl)cc3)CC2CCO)c1 (stereo unspecified),2.1%
5,CN1CCC(N(C)C(=O)CCC2CCCN(Cc3c(F)cccc3F)C2)CC1 (stereo unspecified),5.4%
6,COCCn1c(CN2CCN(C)C(C)C2)cnc1S(=O)(=O)CC(C)(C)C (stereo unspecified),22%
7,NC(=O)CCC(=O)N1CCOC(Cc2cccc(F)c2)C1 (stereo unspecified),5.1%
8,COc1ccc(S(=O)(=O)N2CCC(CO)(Cc3ccccc3)CC2)cc1OC,inactive: -1.9%
9,O=C(CCC1CCN(C(=O)CSc2ccccn2)CC1)NCC1CCCO1 (stereo unspecified),2.6%
10,Clc1cccc(N2CCN(C3CCCN(C4CCSCC4)C3)CC2)c1 (stereo unspecified),4%
11,Clc1ccc(-c2ccc(CNc3nn[nH]n3)o2)cc1,inactive: -1.2%
12,O=C(CCC1CCCN(Cc2ccc3cc(Cl)ccc3n2)C1)N1CCCC1 (stereo unspecified),4.3%
13,Cc1noc(-c2ccc(NCc3ccccc3-n3cncn3)nc2)n1,15%
14,COc1ccc(CN2CCCC(Nc3ccc(F)c(F)c3)C2)c(O)c1 (stereo unspecified),inactive: -1%
15,COc1cc(CNCc2ccc(F)cc2)ccc1OCC(O)CN1CCOCC1 (stereo unspecified),2.4%
